Like-named read-outs stand apart in the source and are kept apart here.
Key:
[1] = tested on: subjects with metastatic or surgically unresectable urothelial cancer; settings: for Nail discoloration, any grade / Nail discoloration, grade 1 / Nail discoloration, grade 2 / Nail discoloration, grade ≥ 3: all-causality
CYP2C9 = CYP2C9 (Homo sapiens, UniProt P11712); settings: estimated
CYP3A4 = CYP3A4 (Homo sapiens, UniProt P08684); settings: estimated
[2] = tested on: metastatic or surgically unresectable urothelial cancer harboring select FGFR genetic alterations; settings: for Duration of response, median (95% CI): chemo relapsed/refractory
Excerpt: The study comprises a Screening Phase (molecular screening at any time prior to first dose and study screening within 30 days of first dose), a treatment phase, and a post-treatment follow-up phase. The treatment phase comprises the period from first dose until the end-of-treatment visit. The follow-up phase extends until the subject has died, withdraws consent, is lost to follow-up, or the end of study, whichever comes first.
Included patients were adults with measurable urothelial cancer per Response Evaluation Criteria in Solid Tumors version 1.1.
Patients were required to have at least 1 FGFR2/FGFR3 mutation or fusion per central lab testing of RNA from formalin-fixed, paraffin-embedded tumor samples, using a custom reverse transcriptase polymerase chain reaction assay.
Patients were contacted every 12 weeks for survival assessment.
The study was designed to enroll 180 patients with specified FGFR alterations. Of these, ≥88 were required in the selected regimen. […] Responses were assessed by investigators and an independent radiological review committee. Progression-free survival and overall survival were estimated using Kaplan-Meier product limit method. Data from patients who were progression free and alive or with unknown status were censored at last tumor assessment. Efficacy end points were analysed at primary analysis cut-off.

Chains of the proteins cited; added tags and fusions are not shown.
UniProt P11712, whole entry: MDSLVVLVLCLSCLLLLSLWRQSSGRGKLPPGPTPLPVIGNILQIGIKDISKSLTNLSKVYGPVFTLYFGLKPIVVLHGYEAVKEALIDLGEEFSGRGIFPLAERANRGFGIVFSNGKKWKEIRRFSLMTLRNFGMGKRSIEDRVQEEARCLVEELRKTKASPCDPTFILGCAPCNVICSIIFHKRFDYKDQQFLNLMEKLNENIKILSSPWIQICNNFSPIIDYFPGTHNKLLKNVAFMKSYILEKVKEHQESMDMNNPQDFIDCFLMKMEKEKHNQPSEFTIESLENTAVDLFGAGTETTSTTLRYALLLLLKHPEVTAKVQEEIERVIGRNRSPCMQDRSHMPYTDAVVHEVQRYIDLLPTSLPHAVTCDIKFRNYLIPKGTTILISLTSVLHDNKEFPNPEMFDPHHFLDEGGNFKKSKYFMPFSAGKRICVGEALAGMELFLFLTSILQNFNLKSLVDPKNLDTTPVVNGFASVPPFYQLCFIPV
UniProt P08684, whole entry: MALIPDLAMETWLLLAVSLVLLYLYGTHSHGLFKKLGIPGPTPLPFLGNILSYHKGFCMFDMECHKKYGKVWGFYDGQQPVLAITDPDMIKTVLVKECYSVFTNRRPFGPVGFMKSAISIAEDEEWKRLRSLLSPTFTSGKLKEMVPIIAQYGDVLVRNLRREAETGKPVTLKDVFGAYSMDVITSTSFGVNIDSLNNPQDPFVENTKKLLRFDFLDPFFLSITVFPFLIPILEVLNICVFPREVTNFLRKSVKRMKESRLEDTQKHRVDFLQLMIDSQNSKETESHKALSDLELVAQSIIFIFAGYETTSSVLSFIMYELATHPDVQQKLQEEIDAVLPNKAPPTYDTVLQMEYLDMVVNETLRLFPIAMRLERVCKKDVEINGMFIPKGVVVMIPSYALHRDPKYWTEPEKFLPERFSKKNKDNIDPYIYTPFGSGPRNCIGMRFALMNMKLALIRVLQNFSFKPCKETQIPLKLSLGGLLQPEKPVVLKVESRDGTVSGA

[3] = treatment-related, 10 mg Intermittent, Regimen 1 (n = 33)

COc1cc(OC)cc(N(CCNC(C)C)c2ccc3ncc(-c4cnn(C)c4)nc3c2)c1 [erdafitinib, N-(3,5-dimethoxy-phenyl)-N′-(1-methylethyl)-N-[3-(1-methyl-1H-pyrazol-4-yl)quinoxalin-6-yl]ethane-1,2-diamine]
Serious treatment-emergent: General disorders/administration site conditions ([1]; 6 mg continuous, n = 78): 7 (9) no. (%) | Serious treatment-emergent: General physical health deterioration ([1]; 6 mg continuous, n = 78): 2 (3) no. (%) | Serious treatment-emergent: General disorders/administration site conditions ([1]; 8 mg continuous, n = 99): 8 (8) no. (%) | Serious treatment-emergent: General physical health deterioration ([1]; 8 mg continuous, n = 99): 3 (3) no. (%) | Treatment-related Nail discoloration, any grade ([1]; 8 mg continuous, n = 99): 11 (11) no. (%) | Treatment-related Nail discoloration, grade 1 ([1]; 8 mg continuous, n = 99): 8 (8) no. (%) | Treatment-related Nail discoloration, grade 2 ([1]; 8 mg continuous, n = 99): 3 (3) no. (%) | Treatment-related Nail discoloration, grade 3 ([1]; 8 mg continuous, n = 99): 0 no. (%) | Serious treatment-emergent: General disorders/administration site conditions ([1]; 10 mg intermittent, n = 33): 1 (3) no. (%) | Serious treatment-emergent: General physical health deterioration ([1]; 10 mg intermittent, n = 33): 1 (3) no. (%) | Nail discoloration, any grade ([1]; 6 mg continuous, n = 78): 8 no. | Nail discoloration, grade 1 ([1]; 6 mg continuous, n = 78): 6 no. | Nail discoloration, grade 2 ([1]; 6 mg continuous, n = 78): 2 no. | Nail discoloration, grade ≥ 3 ([1]; 6 mg continuous, n = 78): 0 no. | Nail discoloration, any grade ([1]; 8 mg continuous, n = 99): 11 no. | Nail discoloration, grade 1 ([1]; 8 mg continuous, n = 99): 8 no. | Nail discoloration, grade 2 ([1]; 8 mg continuous, n = 99): 3 no. | Nail discoloration, grade ≥ 3 ([1]; 8 mg continuous, n = 99): 0 no. | Nail discoloration, any grade ([1]; 10 mg intermittent, n = 33): 1 no. | Nail discoloration, grade 1 ([1]; 10 mg intermittent, n = 33): 0 no. | Nail discoloration, grade 2 ([1]; 10 mg intermittent, n = 33): 1 no. | Nail discoloration, grade ≥ 3 ([1]; 10 mg intermittent, n = 33): 0 no. | Patients with Nail discoloration, Grade ≥3 ([1]; treatment-related, 6 mg Continuous, Regimen 2 (n = 78)): 0 no. | Patients with Nail discoloration, Grade 1 [1, 3]: 0 no. | Patients with Nail discoloration, Grade ≥3 [1, 3]: 0 no. | contribution of CYP2C9 in the total clearance (CYP2C9): 39% | contribution of CYP3A4 in the total clearance (CYP3A4): 20% | Duration of response, median (95% CI) ([2]; 6 mg QD, FGFR fusions (excluding mutations), 2 responders): 9.20 (4.17, 14.23) months | Duration of response, median (95% CI) ([2]; 6 mg QD, FGFR mutations (excluding fusions), 22 responders): 4.53 (4.01, 7.79) months | Duration of response, median (95% CI) ([2]; 6 mg QD, FGFR mutations and fusions, 3 responders): 11.27 (4.17, NE) months | Duration of response, median (95% CI) ([2]; 8 mg QD, FGFR fusions (excluding mutations), 4 responders): NE (2.96, NE) | Duration of response, median (95% CI) ([2]; 8 mg QD, FGFR mutations (excluding fusions), 31 responders): 5.55 (4.21, 7.00) months | Duration of response, median (95% CI) ([2]; 10 mg 7 on/7 off, FGFR mutations (excluding fusions), 5 responders): 13.37 (4.17, 19.45) months | Duration of response, median (95% CI) ([2]; 10 mg 7 on/7 off, FGFR mutations and fusions, 1 responder): 4.34 (NE, NE) months | Median duration of response ([2]; Regimen 3, 8 mg continuous (n=99)): 5.6 mo | Duration of response, median (95% CI) ([2]; Total (all 3 regimens), FGFR fusions (excluding mutations), 6 responders): 9.40 (2.96, 14.23) months | Duration of response, median (95% CI) ([2]; Total (all 3 regimens), FGFR mutations and fusions, 4 responders): 7.80 (4.17, NE) months

— patent US12691112B2, “FGFR tyrosine kinase inhibitors for the treatment of urothelial carcinoma” (Janssen Pharmaceutica NV, priority 2019, dated 2026)
